# Experimental data: patent US20060216705
# Chains of the proteins cited; added tags and fusions are not shown. A line that says so, or that is headed by a name, gives the form on record, which may keep a tag or linker.
# UniProt Q9HBZ2, whole entry: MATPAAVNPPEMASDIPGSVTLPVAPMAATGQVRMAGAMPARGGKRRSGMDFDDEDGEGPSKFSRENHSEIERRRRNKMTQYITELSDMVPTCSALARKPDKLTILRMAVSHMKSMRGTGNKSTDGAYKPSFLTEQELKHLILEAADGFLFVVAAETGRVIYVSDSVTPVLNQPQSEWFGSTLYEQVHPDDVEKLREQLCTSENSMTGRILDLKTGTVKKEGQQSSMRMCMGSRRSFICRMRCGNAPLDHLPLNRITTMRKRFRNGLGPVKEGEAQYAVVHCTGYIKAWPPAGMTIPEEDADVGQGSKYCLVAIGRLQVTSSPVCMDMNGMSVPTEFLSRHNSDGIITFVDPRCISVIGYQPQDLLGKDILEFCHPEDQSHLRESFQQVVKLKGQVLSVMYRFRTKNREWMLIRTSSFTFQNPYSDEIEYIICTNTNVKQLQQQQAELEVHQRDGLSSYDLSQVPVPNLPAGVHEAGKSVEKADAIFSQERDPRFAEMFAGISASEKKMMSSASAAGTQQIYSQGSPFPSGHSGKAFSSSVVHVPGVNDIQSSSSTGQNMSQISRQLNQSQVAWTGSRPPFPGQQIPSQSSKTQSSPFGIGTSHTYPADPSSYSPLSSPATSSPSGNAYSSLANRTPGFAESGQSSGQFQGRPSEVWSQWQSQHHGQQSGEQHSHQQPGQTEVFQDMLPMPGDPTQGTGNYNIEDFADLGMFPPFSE
# NXF/Arnt2 heterodimer (rat NXF, human Arnt2) (Rattus norvegicus / Homo sapiens), one chain, as listed by the source: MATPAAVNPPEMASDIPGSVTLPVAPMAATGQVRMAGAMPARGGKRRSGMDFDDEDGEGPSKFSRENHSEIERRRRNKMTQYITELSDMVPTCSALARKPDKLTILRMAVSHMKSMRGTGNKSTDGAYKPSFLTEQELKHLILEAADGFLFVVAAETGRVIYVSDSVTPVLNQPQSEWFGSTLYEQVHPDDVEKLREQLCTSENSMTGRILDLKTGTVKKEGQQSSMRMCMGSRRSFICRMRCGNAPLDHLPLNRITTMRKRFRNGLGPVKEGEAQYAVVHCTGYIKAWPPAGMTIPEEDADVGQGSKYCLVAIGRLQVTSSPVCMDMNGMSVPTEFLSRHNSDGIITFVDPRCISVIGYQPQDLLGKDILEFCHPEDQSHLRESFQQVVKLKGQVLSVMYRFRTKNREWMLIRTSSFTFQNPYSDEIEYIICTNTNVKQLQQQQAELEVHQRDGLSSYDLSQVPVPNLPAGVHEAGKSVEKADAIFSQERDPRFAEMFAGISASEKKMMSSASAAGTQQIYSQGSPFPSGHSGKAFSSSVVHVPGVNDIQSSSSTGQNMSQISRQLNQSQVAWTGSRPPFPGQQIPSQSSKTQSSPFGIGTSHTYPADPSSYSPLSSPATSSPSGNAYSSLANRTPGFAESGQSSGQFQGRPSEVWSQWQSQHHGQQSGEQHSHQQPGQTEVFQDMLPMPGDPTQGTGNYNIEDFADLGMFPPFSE
# For some of these results: A negative result means that nothing was seen under these conditions. For some of these results: Protein sequences can lack the tags named with them. For some of these results: Where cells or extracts were used, other partners may take part.
# Experiments:
# [1] = test system: NXF/Arnt2 heterodimer (rat NXF, human Arnt2) (Rattus norvegicus / Homo sapiens); test: competition with a labelled probe; details: 100x cold E-box did not compete the CME band; protein in a lysate after overexpression; protein details: full length, baculovirus Sf21 whole cell extract
# [2] = test system: NXF/Arnt2 heterodimer (rat NXF, human Arnt2) (Rattus norvegicus / Homo sapiens); test: EMSA; details: 20 mM HEPES pH 7.9, 100 mM NaCl, 1 mM DTT, 5% glycerol, 0.1 ug/ul poly dI-dC, 25 C; competed by 100x cold CME; protein in a lysate after overexpression; protein details: full length, baculovirus Sf21 whole cell extract; label: 5'-32P
# Arnt2 (Homo sapiens) [3] = biological target: Arnt2 (Homo sapiens) (UniProt Q9HBZ2); test: EMSA; details: Arnt2 alone, no band; protein in a lysate after overexpression; protein details: full length, baculovirus Sf21 whole cell extract; label: 5'-32P
# [4] = biological target: T1, NXF (rNXF) (Rattus norvegicus) (UniProt Q8CJH6); test: EMSA; details: NXF alone, no band; protein in a lysate after overexpression; protein details: full length, baculovirus Sf21 whole cell extract; label: 5'-32P
# T1 sequence: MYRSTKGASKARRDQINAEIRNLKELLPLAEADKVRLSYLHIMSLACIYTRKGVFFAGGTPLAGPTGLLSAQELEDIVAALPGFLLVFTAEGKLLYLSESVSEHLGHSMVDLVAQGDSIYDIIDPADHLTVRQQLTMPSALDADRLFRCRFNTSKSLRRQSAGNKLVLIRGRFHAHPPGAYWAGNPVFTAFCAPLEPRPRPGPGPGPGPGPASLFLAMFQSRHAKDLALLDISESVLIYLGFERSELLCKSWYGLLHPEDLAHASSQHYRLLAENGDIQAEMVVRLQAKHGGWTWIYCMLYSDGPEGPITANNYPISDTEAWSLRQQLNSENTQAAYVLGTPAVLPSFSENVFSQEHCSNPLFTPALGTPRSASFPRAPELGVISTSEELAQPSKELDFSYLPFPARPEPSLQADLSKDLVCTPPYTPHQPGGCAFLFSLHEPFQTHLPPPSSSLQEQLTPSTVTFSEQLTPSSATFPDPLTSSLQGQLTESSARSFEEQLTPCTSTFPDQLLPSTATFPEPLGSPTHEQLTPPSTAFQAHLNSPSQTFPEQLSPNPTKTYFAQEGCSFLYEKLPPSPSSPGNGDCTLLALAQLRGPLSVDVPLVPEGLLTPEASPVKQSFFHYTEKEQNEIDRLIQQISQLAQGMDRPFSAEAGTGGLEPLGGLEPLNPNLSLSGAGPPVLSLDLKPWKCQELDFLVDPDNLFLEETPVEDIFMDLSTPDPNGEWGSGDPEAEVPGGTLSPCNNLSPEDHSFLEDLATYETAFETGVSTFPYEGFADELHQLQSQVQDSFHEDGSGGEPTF
# [5] = biological target: T2, NXF (mNXF) (Mus musculus) (UniProt Q8BGD7); test: activity in cells; details: NXF alone, HeLa luciferase reporter; protein in cells; protein details: full length, pRC/RSV expression in HeLa; only the site is given
# T2 sequence: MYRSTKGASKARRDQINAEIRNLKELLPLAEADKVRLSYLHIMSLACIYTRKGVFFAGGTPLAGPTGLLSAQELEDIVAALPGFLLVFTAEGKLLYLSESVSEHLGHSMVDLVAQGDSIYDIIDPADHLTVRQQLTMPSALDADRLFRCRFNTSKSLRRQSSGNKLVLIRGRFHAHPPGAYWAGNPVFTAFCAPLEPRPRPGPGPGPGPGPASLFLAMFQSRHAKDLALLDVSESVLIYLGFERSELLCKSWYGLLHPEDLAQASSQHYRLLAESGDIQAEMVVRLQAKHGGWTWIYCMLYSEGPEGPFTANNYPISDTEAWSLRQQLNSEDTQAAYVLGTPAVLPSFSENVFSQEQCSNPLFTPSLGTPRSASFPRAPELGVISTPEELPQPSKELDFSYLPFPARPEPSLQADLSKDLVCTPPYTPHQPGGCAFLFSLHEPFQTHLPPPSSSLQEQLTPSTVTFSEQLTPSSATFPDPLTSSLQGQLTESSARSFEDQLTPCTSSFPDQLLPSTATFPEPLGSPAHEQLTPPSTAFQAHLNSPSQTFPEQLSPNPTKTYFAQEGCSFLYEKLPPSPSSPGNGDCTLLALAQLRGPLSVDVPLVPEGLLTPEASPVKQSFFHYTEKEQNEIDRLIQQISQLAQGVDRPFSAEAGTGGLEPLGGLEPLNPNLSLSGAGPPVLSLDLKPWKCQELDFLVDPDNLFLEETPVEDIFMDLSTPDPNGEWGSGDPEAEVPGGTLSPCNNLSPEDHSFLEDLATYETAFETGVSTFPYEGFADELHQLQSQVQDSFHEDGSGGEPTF
# Arnt2 (Homo sapiens) [6] = biological target: Arnt2 (Homo sapiens) (UniProt Q9HBZ2); test: activity in cells; details: Arnt2 alone, HeLa luciferase reporter; protein in cells; protein details: full length, pRC/RSV expression in HeLa; only the site is given
# [7] = test system: NXF/Arnt2 heterodimer (mouse NXF, human Arnt2) (Mus musculus / Homo sapiens); test: activity in cells; details: luciferase reporter in HeLa, protein in cells, protein details: full length, pRC/RSV expression in HeLa, only the site is given
sequence,measurement,setting,value
CAAGTCCACGTGCAGGGA (double strand) [E-box double-stranded oligonucleotide],binding result,[1],no binding
CTAGAAATTTGTACGTGCCACAGA (double strand) [CME double-stranded oligonucleotide],binding result,[2],binds
same,binding result,Arnt2 (Homo sapiens) [3],no binding
same,binding result,[4],no binding
"CTAGCCTAGAAATTTGTACGTGCCACAGACTAGAAATTTGTACGTGCCACAGAG / CTAGCTCTGTGGCACGTACAAATTTCTAGTCTGTGGCACGTACAAATTTCTAGG [CMEx4 reporter insert (2-copy unit, two in tandem)]",activity on this sequence,[5],not active
same,activity on this sequence,Arnt2 (Homo sapiens) [6],not active
same,activity on this sequence,"[7]; potent activation, dose dependent on NXF (FIG. 8)",active
CTTTAGCCACGTGACAGTGTAAGCACACGTGGGCCCTCAAGTCCACGTGCAGGGAC / TCGAGTCCCTGCACGTGGACTTGAGGGCCCACGTGTGCTTACACTGTCACGTGGCTAAAGGTAC [(Ebox)x3 reporter insert],activity on this sequence,[5],not active
same,activity on this sequence,Arnt2 (Homo sapiens) [6],not active
same,activity on this sequence,[7]; not influenced,not active
